In patent US20140314667A1, “METHODS OF TREATING EPIDERMAL GROWTH FACTOR DELETION MUTANT VIII RELATED DISORDERS” (AMGEN INC., priority 2011, published 2014):
At least one compound was matched to its structure with a doubt left.

Tested on: D317 human glioblastoma cells injected into the brain
Assay: Orthotopic D317 glioblastoma model, MRI tumor volume and apparent diffusion coefficient
Type: in vivo, CB17 SCID mice
Settings: Day 21; Ab 131-DM1 22 and 11 mg/kg i.v. twice per week, temozolomide 10 mg/kg p.o. daily five days per week; p<0.0001

## Cn1nnc2c(C(N)=O)ncn2c1=O [temozolomide]
  tumor growth relative to vehicle: growth was inhibited
